# Results from the supplement of paper PMC8728848.
# Some of the results follow.
# B1: GroEL (Clostridium difficile), Q18CT5 (protein)
# chain: MAKEIKFSEETRRALEAGVNKLADTVKVTLGPKGRNVILDKKFGSPLITNDGVTIAKEIELEDRFENMGAQLVKEVATKTNDVAGDGTTTATVLAQAIIREGLKNVTAGANPILLRKGIQKAVTVAVEELKNQSRIVETQEAISQVASISAGDEEVGKLIAEAMEIVGKDGVITVEESQTMNTELDAVEGMQFDRGFVSAYMVTDVDKMEAVLNDPYILITDKKISNIQELLPVLEQIVQQGKKLLIIAEDVEGEALSTLVVNKLRGTFDVVAVKAPGFGDRRKEMLQDIAILTGAQVISEELGYDLKEADLSMLGRASSVKVTKESTTIVDGSGDKKAIEDRVTQIKHQVEQTTSDFDREKLMERLAKLAGGVAVVKVGAATEVELKERKLRIEDALNATRAAVEEGIVAGGGTAFVSVIPAIGTLIESLEGEVKLGAQIVKKALEEPLRQIAINAGLEGAVIVQNVVNSEAETGFDALNEKYVNMIEAGIVDPTKVSRSALQNAASIASTFLTTEAAVADLPEKEDAGMPGMGGGMPGMM
# Key:
# Test in all cases: glycan array binding signal (z-score within array); higher = stronger binding
# Details in all cases: glycan notation: IUPAC condensed, linker removed
# [1] = target: Man(a1-2)Man(a1-3)[Man(a1-2)Man(a1-6)]Man(a1-6)[Man(a1-2)Man(a1-2)Man(a1-3)]Man(b1-4)GlcNAc(b1-4)GlcNAc
# Outline: (§1)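 The binding signal is a Z-score computed within each array. Data were drawn from 3228 arrays in the Consortium for Functional Glycomics database, restricted to those with a known protein sequence. Scores were averaged over arrays of the same protein sequence at different concentrations or buffers, and over linkers, and negative values can be taken as non-binding.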
# [2] = target: Man(a1-2)Man(a1-3)[Man(a1-6)]Man(a1-6)[Man(a1-2)Man(a1-3)]Man(b1-4)GlcNAc(b1-4)GlcNAc
# Outline: as §1
# [3] = target: Man(a1-2)Man(a1-6)[Man(a1-3)]Man(a1-6)[Man(a1-2)Man(a1-2)Man(a1-3)]Man
# Outline: as §1
# [4] = target: Man(a1-2)Man(a1-6)[Man(a1-3)]Man(a1-6)[Man(a1-2)Man(a1-2)Man(a1-3)]Man(b1-4)GlcNAc(b1-4)GlcNAc
# Outline: as §1
# [5] = target: Man(a1-3)[Man(a1-6)]Man
# Outline: as §1
# [6] = target: Man(a1-3)[Man(a1-6)]Man(a1-6)[Man(a1-2)Man(a1-3)]Man(b1-4)GlcNAc(b1-4)GlcNAc
# Outline: as §1
# [7] = target: Man(a1-3)[Man(a1-6)]Man(a1-6)[Man(a1-3)]Man
# Outline: as §1
# [8] = target: Man(a1-3)[Man(a1-6)]Man(a1-6)[Man(a1-3)]Man(b1-4)GlcNAc(b1-4)GlcNAc
# Outline: as §1
# [9] = target: Man(a1-3)[Man(a1-6)]Man(b1-4)GlcNAc(b1-4)GlcNAc
# Outline: as §1
# [10] = target: Man(a1-3)[Man(a1-6)]Man(b1-4)GlcNAc(b1-4)[Fuc(a1-6)]GlcNAc
# Outline: as §1
# [11] = target: Man(a1-6)Man
# Outline: as §1
# [12] = target: Man(b1-4)GlcNAc
# Outline: as §1
# [13] = target: MurNAc(b1-4)GlcNAc
# Outline: as §1
# [14] = target: Neu5Ac(a2-3)Gal
# Outline: as §1
# [15] = target: Neu5Ac(a2-3)Gal(b1-3)GalNAc
# Outline: as §1
# [16] = target: Neu5Ac(a2-3)Gal(b1-3)GalNAc(b1-3)Gal(a1-4)Gal(b1-4)Glc
# Outline: as §1
# [17] = target: Neu5Ac(a2-3)Gal(b1-3)GalNAc(b1-4)[Neu5Ac(a2-3)]Gal(b1-4)Glc
# Outline: as §1
# [18] = target: Neu5Ac(a2-3)Gal(b1-3)GalNAc(b1-4)[Neu5Ac(a2-8)Neu5Ac(a2-3)]Gal(b1-4)Glc
# Outline: as §1
# [19] = target: Neu5Ac(a2-3)Gal(b1-3)GalNAc6S
# Outline: as §1
# [20] = target: Neu5Ac(a2-3)Gal(b1-3)GlcNAc
# Outline: as §1
# [21] = target: Neu5Ac(a2-3)Gal(b1-3)GlcNAc(b1-2)Man
# Outline: as §1
# [22] = target: Neu5Ac(a2-3)Gal(b1-3)GlcNAc(b1-2)Man(a1-3)[GlcNAc(b1-4)][Neu5Ac(a2-3)Gal(b1-3)GlcNAc(b1-2)Man(a1-6)]Man(b1-4)GlcNAc(b1-4)GlcNAc
# Outline: as §1
# [23] = target: Neu5Ac(a2-3)Gal(b1-3)GlcNAc(b1-2)Man(a1-3)[Neu5Ac(a2-3)Gal(b1-3)GlcNAc(b1-2)Man(a1-6)]Man(b1-4)GlcNAc(b1-4)GlcNAc
# Outline: as §1
# [24] = target: Neu5Ac(a2-3)Gal(b1-3)GlcNAc(b1-3)Gal(b1-3)GlcNAc
# Outline: as §1
# [25] = target: Neu5Ac(a2-3)Gal(b1-3)GlcNAc(b1-3)Gal(b1-4)GlcNAc
# Outline: as §1
# [26] = target: Neu5Ac(a2-3)Gal(b1-3)GlcNAc(b1-3)GalNAc
# Outline: as §1
# [27] = target: Neu5Ac(a2-3)Gal(b1-3)GlcNAc(b1-4)Gal(b1-4)Glc
# Outline: as §1
# [28] = target: Neu5Ac(a2-3)Gal(b1-3)GlcNAc(b1-6)GalNAc
# Outline: as §1
# [29] = target: Neu5Ac(a2-3)Gal(b1-3)GlcNAc6S
# Outline: as §1
# [30] = target: Neu5Ac(a2-3)Gal(b1-3)[Fuc(a1-4)]GlcNAc
# Outline: as §1
binder,measurement,setting,value
B1,glycan array binding signal (z-score),[1],-0.359
same,glycan array binding signal (z-score),[2],2.47
same,glycan array binding signal (z-score),[3],0.972
same,glycan array binding signal (z-score),[4],-1.48
same,glycan array binding signal (z-score),[5],-0.789
same,glycan array binding signal (z-score),[6],1.52
same,glycan array binding signal (z-score),[7],2.57
same,glycan array binding signal (z-score),[8],3.99
same,glycan array binding signal (z-score),[9],0.123
same,glycan array binding signal (z-score),[10],-0.595
same,glycan array binding signal (z-score),[11],1.95
same,glycan array binding signal (z-score),[12],-1.02
same,glycan array binding signal (z-score),[13],0.153
same,glycan array binding signal (z-score),[14],0.101
same,glycan array binding signal (z-score),[15],-0.287
same,glycan array binding signal (z-score),[16],-1.2
same,glycan array binding signal (z-score),[17],-1.08
same,glycan array binding signal (z-score),[18],-0.272
same,glycan array binding signal (z-score),[19],-0.769
same,glycan array binding signal (z-score),[20],-0.171
same,glycan array binding signal (z-score),[21],-0.056
same,glycan array binding signal (z-score),[22],1.2
same,glycan array binding signal (z-score),[23],-0.115
same,glycan array binding signal (z-score),[24],-0.917
same,glycan array binding signal (z-score),[25],0.928
same,glycan array binding signal (z-score),[26],0.139
same,glycan array binding signal (z-score),[27],2.65
same,glycan array binding signal (z-score),[28],-0.316
same,glycan array binding signal (z-score),[29],0.105
same,glycan array binding signal (z-score),[30],0.038
